Experimental data: PMC3465347, “Regulation of NF-κB Activation through a Novel PI-3K-Independent and PKA/Akt-Dependent Pathway in Human Umbilical Vein Endothelial Cells” (PLoS ONE, 2012)
Results are given in words; binding and its absence hold for the method and conditions named. In cells and extracts the contact can be indirect. Binding can be weak; no strength is given.

Target: T1, IKK-β (human (endogenous in HUVECs)) (UniProt O14920)
T1 sequence: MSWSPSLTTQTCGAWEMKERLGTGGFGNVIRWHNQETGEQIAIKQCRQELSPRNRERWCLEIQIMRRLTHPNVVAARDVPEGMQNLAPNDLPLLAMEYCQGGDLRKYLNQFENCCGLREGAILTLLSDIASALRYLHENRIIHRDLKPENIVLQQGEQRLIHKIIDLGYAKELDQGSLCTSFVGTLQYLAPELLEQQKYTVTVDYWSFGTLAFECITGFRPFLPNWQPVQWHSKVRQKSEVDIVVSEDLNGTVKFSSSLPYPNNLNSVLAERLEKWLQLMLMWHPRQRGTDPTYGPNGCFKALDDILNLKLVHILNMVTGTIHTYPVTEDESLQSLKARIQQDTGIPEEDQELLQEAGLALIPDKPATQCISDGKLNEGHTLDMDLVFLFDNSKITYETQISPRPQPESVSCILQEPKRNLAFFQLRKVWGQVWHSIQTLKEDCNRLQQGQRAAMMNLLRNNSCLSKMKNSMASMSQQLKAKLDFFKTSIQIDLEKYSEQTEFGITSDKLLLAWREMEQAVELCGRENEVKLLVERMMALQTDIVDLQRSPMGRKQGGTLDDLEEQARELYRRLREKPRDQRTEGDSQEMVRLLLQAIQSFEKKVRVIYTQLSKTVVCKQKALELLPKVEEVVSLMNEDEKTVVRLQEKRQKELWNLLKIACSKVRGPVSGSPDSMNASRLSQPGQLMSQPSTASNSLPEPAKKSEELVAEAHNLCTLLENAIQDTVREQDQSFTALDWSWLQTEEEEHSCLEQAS
Test: co-IP; total cell extracts of HUVECs induced with TNF-α (10 ng/ml) for the indicated times, with or without MPTAG pretreatment; immunoprecipitated with anti-IKK-β antibody and protein G beads at 4°C; western blot with anti-Akt and anti-IKK-β; lysis buffer 50 mM HEPES pH 7.6, 100 mM NaCl, 1% NP-40

## Akt (human (endogenous in HUVECs))
  binding: binds
